This is an account of results in patent US20150164910A1, “ANTIVIRAL COMPOUNDS AND METHODS OF USE” (The Regents of the University of Califonia, priority 2012, published 2015).

SMILES strings stand for the structures. Where a name gives a salt, the structure may show the parent alone. Read-outs that look alike come from different tables or passages of the source.

The conditions of data set [1]: chronic therapy 80 mg/day fluoxetine; cited from earlier work.
The next data set concerns coxsackievirus B3 (CVB3). Put plainly: Cell viability assay, prevention of cell death caused by CVB3 infection. In kind it is cell-based. The settings on record: Enterovirus B. As to the method:
Procedure: Enteroviruses rapidly cause cell death, and a cell viability assay was used to examine the cytotoxicity of each compound and to identify the concentration needed to prevent cell death caused by coxsackievirus B3 (CVB3) infection.
Compounds were diluted two-fold and added to wells of 384 well plate. HeLa-RW cells were then added (cytotoxicity testing), or cells and CVB3 were added to provide a low multiplicity of infection to determine concentration of peak activity or 50% maximal concentration. Selectivity index is defined as the 50% Cytotoxic concentration/50% activity concentration

Data set [2] deals with eGFP-expressing recombinant CVB3. In kind it is cell-based, coxsackievirus B3. The settings on record: eGFP-CVB3 m.o.i=1, compound added at time of infection, 6 hr post infection; 1-(% eGFP+ cells with compound/% with DMSO only).

Consider `CNCCC(Oc1ccc(C(F)(F)F)cc1)c1ccccc1` (centres unmarked) [Compound 72, N-Methyl-3-phenyl-3-[4-(trifluoromethyl)phenoxy]-1-propanamine hydrochloride (1:1), reference compound], for which the “Concentrations achieved during chronic therapy” value in data set [1] was 1000 µM. The IC50 with coxsackievirus B3 (CVB3) (read-out: 50% activity concentration (IC50)) and in the data set with coxsackievirus B3 (CVB3) (read-out: IC50 values estimated) was 2340 nM throughout. Besides, the EC (peak activity) with coxsackievirus B3 (CVB3) (read-out: Peak Activity Conc.) stood at 6.25 µM. The “Inhibition of infected cells” value in data set [2] stood at 99.7%.
